PubChem BioAssay AID686938 | Drosophila RNAi Screening Center – 2013

Purpose: 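Fly genes required for calcium entry once internal stores are emptied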 (primary screen)
Cells: Drosophila S2R+ cells
Knock-down reagent: long dsRNA against Drosophila genes, about 0.25 µg dsRNA per well, roughly 10,000 cells
Time to read-out: 5 days of knock-down before the calcium assay
Treatment: thapsigargin (SERCA pump blocker) to empty calcium stores; entry signal taken 4 min after adding it
Read-out: 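Per-well fluo-4 fluorescence in two replicates, unnormalised, measured in resting cells and 4 min after store depletion by the SERCA blocker thapsigargin; ratio of the two present in few wells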
Scale: calcium entry signal: higher = stronger calcium signal after store depletion; entry to resting ratio: higher = more calcium entry relative to resting level; resting calcium signal: higher = higher resting calcium signal
Rule for the call: 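Called when the plate z-score of the entry-to-rest ratio, mean of duplicates, falls below −3; wells with low overall dye signal (Fmax z below −2) or more than five off-targets excluded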
Meaning of the calls: active = strongly reduced calcium entry; inactive = no strong reduction
The deposit covers about 23,000 reagents; this is an unselected part of those that have a named target and a result. Over the whole deposit, 75 (0.33%) were called active. 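Raw plate signals without normalisation; calls rest on plate z-scores that were not deposited; ratio present for only 364 wells.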 A plus sign joins genes that one reagent is predicted to hit. Not stated in the record: the dose of the treatment.

Gene	amplicon	calcium entry signal, replicate 1 (fluorescence units)	calcium entry signal, replicate 2 (fluorescence units)	entry to resting ratio	resting calcium signal, replicate 1 (fluorescence units)	resting calcium signal, replicate 2 (fluorescence units)	activity call
sba (six-banded)	DRSC13643	3.32e7	3.38e7		1.68e7	1.87e7	inactive
sba (six-banded)	DRSC17050	4.60e7	5.97e7		2.20e7	2.79e7	inactive
Galphas (G protein alpha subunit s)	DRSC04616	3.15e7			1.49e7		inactive
Peritrophin-15a	DRSC02636	3.80e7	5.40e7		1.84e7	2.28e7	inactive
CG3829	DRSC04423	3.63e7			1.80e7		inactive
CG31522	DRSC12005	4.27e7	2.97e7		2.15e7	1.47e7	inactive
Cyp6a15Psi (pseudo)	DRSC07377	3.62e7	4.03e7		1.96e7	1.92e7	inactive
drd (drop dead)	DRSC19343	4.34e7	2.28e7		2.09e7	1.17e7	inactive
drd (drop dead)	DRSC21466	2.37e7	3.04e7		1.25e7	1.30e7	inactive
CG42818	DRSC01963	5.14e7	3.61e7		2.25e7	1.81e7	inactive
CG13982	DRSC02314	2.46e7	1.97e7		1.24e7	1.02e7	inactive
Doc1 (Dorsocross1)	DRSC11146	3.84e7	3.87e7		1.65e7	1.71e7	inactive
CG7606	DRSC13246	4.55e7	2.79e7		2.18e7	1.35e7	inactive
CG7606	DRSC16268	3.30e7	5.40e7		1.84e7	6.48e7	inactive
CG31705	DRSC01991	3.51e7			2.57e7		inactive
mRpL39 (mitochondrial ribosomal protein L39)	DRSC10255	4.62e7	5.33e7		1.96e7	1.90e7	inactive
CG13590	DRSC04226	4.70e7	2.07e7		2.28e7	1.05e7	inactive
S-Lap5 (Sperm-Leucylaminopeptidase 5)	DRSC06732	3.37e7	4.51e7		1.80e7	2.07e7	inactive
CG16953	DRSC15167	3.57e7	3.85e7		1.56e7	1.68e7	inactive
Pect (Phosphoethanolamine cytidylyltransferase)	DRSC02867	4.35e7			2.37e7		inactive
Pect (Phosphoethanolamine cytidylyltransferase)	DRSC02868	2.93e7	4.55e7		1.87e7	2.62e7	active
CG32235	DRSC23257	4.46e7	2.61e7		2.15e7	1.20e7	inactive
Ttc7 (Tetratricopeptide repeat domain 7)	DRSC04836	3.33e7			1.82e7		inactive
Cth (Cystathionine gamma-lyase)	DRSC07422	4.30e7	4.38e7		2.06e7	1.98e7	inactive
Myc	DRSC18762	4.08e7	4.15e7	1.8	2.24e7	2.08e7	inactive
Obsc (Obscurin)	DRSC04301	4.77e7	2.94e7		2.23e7	1.48e7	inactive
Obsc (Obscurin)	DRSC04302	3.85e7			1.92e7		inactive
Obsc (Obscurin)	DRSC04303	3.86e7	4.41e7		1.83e7	1.95e7	inactive
Obsc (Obscurin)	DRSC04430	2.97e7	3.81e7		1.71e7	1.68e7	inactive
Obsc (Obscurin)	DRSC22422	4.32e7	3.46e7		1.97e7	1.42e7	inactive
CG31445	DRSC14443	2.45e7	3.15e7		1.13e7	1.33e7	inactive
CG13008	DRSC19527	3.50e7	3.38e7		1.85e7	1.58e7	inactive
CG13008	DRSC19528	3.46e7	3.40e7		1.76e7	1.51e7	inactive
CG15861	DRSC04274	2.73e7	3.38e7		1.56e7	1.48e7	inactive
CG18302	DRSC02663	4.06e7	4.90e7		1.88e7	2.00e7	inactive
CG33914	DRSC05033	2.43e7	3.74e7		1.17e7	1.61e7	inactive
CG33914	DRSC05034	2.21e7	3.84e7		1.22e7	1.65e7	inactive
Ugt35A1 (UDP-glycosyltransferase family 35 member A1)	DRSC16892	3.90e7	4.98e7		1.71e7	2.12e7	inactive
CG12347	DRSC14502	2.45e7	2.93e7		4.39e7	1.25e7	inactive
CG12546	DRSC11676	2.16e7	3.38e7		1.12e7	1.67e7	inactive
Dbx	DRSC08270	2.71e7	3.49e7		1.48e7	1.70e7	inactive
Dbx	DRSC08271	2.66e7	4.05e7		1.32e7	1.80e7	inactive
Dbx	DRSC08394	2.66e7	3.41e7		1.25e7	1.64e7	inactive
Obp47b + CG7741	DRSC06330	2.52e7	4.00e7		1.27e7	1.60e7	inactive
Ilp2 (Insulin-like peptide 2)	DRSC10968	5.20e7	3.93e7		2.82e7	1.61e7	inactive
CG14113	DRSC10116	3.46e7	4.80e7		1.71e7	2.13e7	inactive
CG8353	DRSC03084	3.62e7	4.10e7		1.82e7	1.95e7	inactive
RpL30 (Ribosomal protein L30)	DRSC02087	1.41e7	1.57e7		9.62e6	9.36e6	inactive
PhKgamma (Phosphorylase kinase gamma)	DRSC20268	3.40e7	3.80e7		1.58e7	1.79e7	inactive
osp (outspread)	DRSC01409	2.79e7	4.56e7		1.57e7	2.16e7	inactive
osp (outspread)	DRSC03585	4.79e7			2.18e7		inactive
mspo (M-spondin)	DRSC07652	2.77e7	4.76e7		1.47e7	1.92e7	inactive
fzo (fuzzy onions)	DRSC16954	3.70e7	6.52e7		1.83e7	2.75e7	inactive
CG5697	DRSC15858	5.70e7	4.76e7		4.54e7	2.15e7	inactive
CG15649	DRSC04240	5.20e7	5.10e7		2.53e7	2.25e7	inactive
CG6421	DRSC07420	3.18e7	2.86e7		1.37e7	1.43e7	inactive
Ctu2 (Cytosolic thiouridylase subunit 2)	DRSC02024	3.75e7			2.06e7		inactive
ara (araucan)	DRSC11322	2.14e7	1.82e7		1.25e7	1.03e7	inactive
ara (araucan)	DRSC22984	5.31e7	2.65e7		2.64e7	1.21e7	inactive
ths (thisbe)	DRSC06153	3.18e7	3.75e7		1.84e7	2.11e7	inactive
ths (thisbe)	DRSC23123	3.75e7	4.57e7		1.72e7	1.76e7	inactive
CG14111	DRSC10114	3.15e7	4.49e7		1.64e7	1.88e7	inactive
Dnah3 (dynein, axonemal, heavy chain 3)	DRSC08130	3.10e7	3.85e7		1.41e7	1.71e7	inactive
Dnah3 (dynein, axonemal, heavy chain 3)	DRSC08513	2.82e7	3.90e7		1.34e7	1.64e7	inactive
obst-B (obstructor-B)	DRSC01987	4.48e7			2.17e7		inactive
CG8298	DRSC07138	3.39e7	3.56e7		1.75e7	1.62e7	inactive
Ccp84Aa	DRSC12586	4.47e7	3.34e7		2.22e7	1.59e7	inactive
aqz (aaquetzalli)	DRSC16570	6.24e7	4.41e7		3.25e7	2.10e7	inactive
Nmdar2 (NMDA receptor 2)	DRSC18183	3.97e7	4.38e7	2.1	1.91e7	1.70e7	inactive
Nmdar2 (NMDA receptor 2)	DRSC18511	3.59e7	4.48e7	2	1.84e7	1.83e7	inactive
Nmdar2 (NMDA receptor 2)	DRSC18569	3.50e7	4.53e7	2	1.73e7	1.90e7	inactive
CG5399	DRSC15791	2.29e7	3.83e7		1.20e7	4.48e7	inactive
sage (salivary gland-expressed bHLH)	DRSC14580	3.76e7	1.71e7		1.81e7	9.07e6	inactive
Actn (alpha actinin)	DRSC17724	3.54e7	3.71e7		1.57e7	1.72e7	inactive
CG32073	DRSC09087	3.61e7	4.87e7		1.85e7	2.14e7	inactive
CG32073	DRSC09894	3.28e7	4.87e7		1.64e7	2.04e7	inactive

Taken from above:
For “resting calcium signal, replicate 2 (fluorescence units)”, Ccp84Aa [DRSC12586] shows 1.59e7
Result of CG15649 [DRSC04240] in “resting calcium signal, replicate 2 (fluorescence units)”: 2.25e7
Under “activity call”, Dnah3 (dynein, axonemal, heavy chain 3) [DRSC08513] has inactive
CG33914 [DRSC05034], resting calcium signal, replicate 2 (fluorescence units) → 1.65e7
Result of Ttc7 (Tetratricopeptide repeat domain 7) [DRSC04836] in “calcium entry signal, replicate 1 (fluorescence units)”: 3.33e7
For “resting calcium signal, replicate 1 (fluorescence units)”, Dbx [DRSC08270] reads 1.48e7
